# Publication PMC11724288
# Construct, isoform or probe ends are uncertain for at least one entry. At least one verdict was read from the data and is not stated in words by the source.
# Experiments:
# [1] = test system: TFIIICΔtail (τ138, τ131, τ95Δtail, τ91, τ60, τ55) (Saccharomyces cerevisiae); assay: cryo-EM; settings: datasets 2-5, some τA redistribution to pseudo-A-box; Buffer FB: 20 mM HEPES pH 7.5, 150 mM KCl, 2 mM MgCl2, 5 mM DTT; filter binding 1 h at 4 C; footprint 30 min RT; recombinant protein
# [2] = test system: TFIIICΔtail (τ138, τ131, τ95Δtail, τ91, τ60, τ55) (Saccharomyces cerevisiae); assay: EMSA; settings: 100-900 nM protein, poly-dI/dC; Buffer FB: 20 mM HEPES pH 7.5, 150 mM KCl, 2 mM MgCl2, 5 mM DTT; filter binding 1 h at 4 C; EMSA 20 min RT with 1 ug poly-dI/dC, gel at 4 C; footprint 30 min RT; recombinant protein; label: 32P
Sequence,binding result [1],binding result [2]
GTATTACTCGAGCCCGTATATAAACAGTTCTCCATTGAAAAGTCGCCATCTTAGTATAGTGGTTAGTACACATCGTTGTGGCCGATGAAACCCTGGTTCGATTCTAGGAGATGGCATTTT (double strand) [120-bp tRNAHis with TATA-like sequence],binds,–
TCCATTGAAAAGTCGCCATCTTAGTATAGTGGTTAGTACACATCGTTGTGGCCGATGAAACCCTGGTTCGATTCTAGGAGATGGCATTTT (double strand) [A/B (EMSA)],–,binds
